Measured values published in the supplement of paper PMC8728848.
The other results are listed elsewhere or left out.

What was measured:
[1] = molecular target: Neu5Gc(a2-8)Neu5Gc(a2-6)Gal(b1-4)GlcNAc; test: glycan array binding signal (z-score within array); higher = stronger binding; conditions: glycan notation: IUPAC condensed, linker removed
Summary of the method: (§1)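 Glycan array data came from 3228 arrays in the Consortium for Functional Glycomics database, and only arrays with an available protein sequence were kept. Glycan names were put into IUPAC-condensed notation, and columns mapping to the same glycan were averaged. The binding signal is a within-array Z-score, averaged across arrays of one protein sequence run at different concentrations or buffers and across linkers. A negative Z-score can be read as non-binding.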

[2] = molecular target: Neu5Gc(b2-6)Gal(b1-4)GlcNAc; test: as above; conditions: glycan notation: IUPAC condensed, linker removed
Summary of the method: as §1

B1: CcfD (Bacteroides vulgatus), A6KYX8 (protein)
chain: MKYKNYFKSIIYLALGAFTLGSCEDFLDRQEDEKLTFDKIWESRNTTQQYWLNAMSFLPNENGSLQGDTEPYLGASDECTIAYDRQYRWINFGTWNPSQVPYYKMDHYYKGIRECNIFLQNVYKCSDPLVTKDQLDEWYWQTRFARAYYYFLMMRDYGPVFLLGDDLLDFTASTEELYRPRNTWDQCVNYVVSEMTQCAESGVVLQQSDLPAAKWGLATVGTCHAVISRLLLYSARPLFNGNKLYSTVKNPDAPDFPELSGVKLFPELDNTKWQKAAEAAKKLIDNPCYELYRAGNDNPYEDYYGVTHETWNKELIWTDRYNGLFSWGVGTVPTGVAGTAYGAVGPTQALVDAYAMNTGWYPITGYEADGTPIVEPLSGYELASELEKSSWIYPSGGWSNKADFEIEAPNMYKDREPRFYVTVFFGGNQWLHGNSATSISFAKGGNGNKSHDYPKSGYLCNRFYDHKLNSSEGQWGNITFPVFRLGEIYLNFIEAVLECKKNGVALDPSYEALAMEKWADLRKRAGLDPITSIYGQVSTEELIQLCRKERQIELAFERHRYFDTRTWMIATQTDNGKMYGMNTSCPLDAGMKGTETPDGFWERTAFETRVFQNKHYLYPFSQRELDRNKLLTQNYGW
**Q.** With B1 as the binder, how does the “glycan array binding signal (z-score)” value [1] read?
**A.** -1.1

**Q.** And the “glycan array binding signal (z-score)” value [2]?
**A.** -0.515
